Source: patent publication US20160304861A1, “SPATIAL MULTIPLEXING FOR MULTISIGNAL CELLULAR IMAGING” (Massachusetts Institute of Technology, priority 2015, published 2016)
At least one compound was matched to its structure with a doubt left.

Assays:
[1] = system: AKAR4 sensors in mouse embryonic fibroblast (MEF) cells; test: AKAR4 FRET sensor (YFP/CFP) response to FSK stimulus in MEF cells; format: cell-based
[2] = system: ICUE3 sensors in mouse embryonic fibroblast (MEF) cells; test: ICUE3 FRET sensor (YFP/CFP) response to FSK stimulus in MEF cells; format: cell-based
[3] = MEF cell co-transfected with AKAR4 and ICUE3, 50 μM FSK stimulus, FIG. 4C

## C=C[C@@]1(C)CC(=O)[C@]2(O)[C@@]3(C)[C@@H](O)CCC(C)(C)[C@@H]3[C@H](O)[C@H](OC(C)=O)[C@@]2(C)O1 [FSK, forskolin]
[1]; [3]
  fluorescence ratio YFP/CFP for AKAR4: consistent increase
[1]; MEF cell single-transfected with AKAR4, 50 μM FSK stimulus, FIG. 4A
  fluorescence ratio, YFP/CFP (AKAR4): consistent increase
[2]; [3]
  fluorescence ratio YFP/CFP for ICUE3: consistent decrease
[2]; MEF cell single-transfected with ICUE3, 50 μM FSK stimulus, FIG. 4B
  fluorescence ratio, YFP/CFP (ICUE3): consistent decrease
